Experimental data published in PubChem BioAssay AID651804 (National Center for Advancing Translational Sciences (NCATS), 2012).
The whole screen tested about 1,200 compounds, of which about 20 (2%) were called active. About 23% were inconclusive and are not listed. Calls come from the whole dose curve; as a rule, active = well fitted inhibition curve with a large enough effect; inconclusive = small, poorly fitted or top-dose-only effect; inactive = no such curve, though single readings can be large or run the other way. The list shows a part of the results.

Chains of the proteins cited; added tags and fusions are not shown. Lines headed by an entry give the natural chain unless they say otherwise; changes in a name come on top.
UniProt P11308: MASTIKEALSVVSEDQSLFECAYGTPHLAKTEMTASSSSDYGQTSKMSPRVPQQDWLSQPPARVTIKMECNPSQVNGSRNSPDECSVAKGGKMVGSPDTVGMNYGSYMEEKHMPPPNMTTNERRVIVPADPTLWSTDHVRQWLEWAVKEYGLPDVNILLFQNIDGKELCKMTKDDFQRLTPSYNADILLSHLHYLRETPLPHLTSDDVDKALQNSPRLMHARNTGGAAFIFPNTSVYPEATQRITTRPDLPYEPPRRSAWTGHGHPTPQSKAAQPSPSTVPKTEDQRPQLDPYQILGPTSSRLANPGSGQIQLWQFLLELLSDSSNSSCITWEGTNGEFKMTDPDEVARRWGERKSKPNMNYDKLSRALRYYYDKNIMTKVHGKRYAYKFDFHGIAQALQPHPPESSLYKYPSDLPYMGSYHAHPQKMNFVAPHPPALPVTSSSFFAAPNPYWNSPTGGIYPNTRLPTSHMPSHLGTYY

Each compound was assayed against Transcriptional regulator ERG (Homo sapiens) (UniProt P11308) (assay: qHTS for Small Molecule Inhibitors of the ERG Ets/DNA interaction: HTRF assay against cherry picks). Conditions: His-ERG Ets domain with biotin-DNA; series mostly up to 154 µM; activity change, negative = inhibition: at the top concentration.
Summary of the method: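 Compounds were incubated 10 min at RT with ERG Ets domain and biotinylated DNA (each added as 200 nM solution) in pH 7.5 Tris/KCl/EDTA/DTT buffer. Binding was read as FRET (ex 320, em 615 and 665 nm) between anti-His donor and streptavidin acceptor.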
Potency is the fitted concentration of half-maximal effect.

SMILES | activity change, negative = inhibition | Potency
Oc1ccc(NCc2ccc(OCc3ccccc3)cc2)cc1 | inactive: -24.2% | 
CCc1ccc(Nc2ncnc3nc[nH]c23)cc1 | inactive: -29.9% | 
CC(NC(=O)c1cn(C)c2ccc(S(=O)(=O)N3CCCC3)cc2c1=O)c1ccccc1 (configuration not stated) | inactive: -13.9% | 
O=C(CSc1nnnn1-c1ccccc1)Nc1nc(-c2ccccc2)ns1 | inactive: -0.955% | 
COc1ccc(NC(=S)NCc2ccc3c(c2)cc(C)n3C)cc1 | inactive: 42.5% | 
O=C(COC(=O)c1cc(-c2cccc3ccccc23)nc2ccccc12)NC1CCS(=O)(=O)C1 (configuration not stated) | inactive: 45.1% | 
COc1ccc(-c2noc(CSc3nc4ccccc4c(=O)n3-c3ccccc3)n2)cc1 | inactive: -26.3% | 
CC1(C)CC(=O)/C(=C\c2cccc([N+](=O)[O-])c2)C(C)(C)N1 | inactive: -6.21% | 
Cc1cnc(C(=O)Nc2ccccc2-c2ccc(C)o2)cn1 | inactive: -25.9% | 
COC(=O)c1cc(NC(=O)c2c(Cl)cnn2C)cc(C(=O)OC)c1 | inactive: -7.9% | 
Cc1ccc(OCCN(C)C(=O)c2cc(COc3ccc(F)cc3F)on2)cc1 | inactive: -7.32% | 
O=C(NNC(=O)c1ccc(S(=O)(=O)N2CCCCC2)cc1)c1ccc(F)cc1 | inactive: -25.6% | 
CCOc1ccc(CN2CCNC(=O)C2CC(=O)NCCCn2ccnc2)cc1 (configuration not stated) | inactive: -11.7% | 
COc1cc(CCC(=O)OCC(=O)NC2CCCC(C)C2C)cc(OC)c1OC (configuration not stated) | inactive: 6.68% | 
COc1ccc(CCN(Cc2cccs2)S(=O)(=O)c2ccc(-n3cnnn3)c(OC)c2)cc1OC | inactive: -23.9% | 
Cc1occc1C(=O)NNS(=O)(=O)c1ccc(Cl)cc1 | inactive: -23.6% | 
O=C1COc2ccc(S(=O)(=O)Nc3ccc4c(c3)OCO4)cc2N1 | inactive: -27.1% | 
S=c1[nH]nc(Cc2n[nH]c(=S)n2-c2ccccc2)n1-c1ccccc1 | inactive: -5.52% | 
CCOc1ccccc1N1CCN(C(=O)c2cc(S(=O)(=O)N(C)C)ccc2N2CCCC2)CC1 | inactive: -17.2% | 
Cc1nnc(SCC(=O)NNC(=O)c2ccccc2)n1-c1ccccc1 | inactive: -8.49% | 
CCC1Oc2ccccc2N(CC(=O)NC2CC2)C1=O (configuration not stated) | inactive: -22.8% | 
Cc1cc(C)cc(NC(=O)[C@H](Cc2c[nH]c3ccccc23)NC(=O)[C@@H]2Cc3ccccc3CN2)c1 | inactive: -32.7% | 

Laid out differently: 6 of the compounds above
SMILES,"activity change, negative = inhibition",Potency
Oc1ccc(NCc2ccc(OCc3ccccc3)cc2)cc1,inactive: -24.2%,
O=C(COC(=O)c1cc(-c2cccc3ccccc23)nc2ccccc12)NC1CCS(=O)(=O)C1 (configuration not stated),inactive: 45.1%,
Cc1cnc(C(=O)Nc2ccccc2-c2ccc(C)o2)cn1,inactive: -25.9%,
COc1cc(CCC(=O)OCC(=O)NC2CCCC(C)C2C)cc(OC)c1OC (configuration not stated),inactive: 6.68%,
COc1ccc(CCN(Cc2cccs2)S(=O)(=O)c2ccc(-n3cnnn3)c(OC)c2)cc1OC,inactive: -23.9%,
CCOc1ccccc1N1CCN(C(=O)c2cc(S(=O)(=O)N(C)C)ccc2N2CCCC2)CC1,inactive: -17.2%,

Next part

SMILES | activity change, negative = inhibition | Potency
COCCN1CCN(C(=O)C2CCC(=O)N(Cc3ccccc3OC)C2)CC1 (configuration not stated) | inactive: -27.5% | 
Cn1nnnc1-c1cc(Cl)cc(Cl)c1 | inactive: -22.2% | 
CCc1nn2c(-c3ccco3)ccnc2c1-c1ccc(F)cc1 | inactive: -20.9% | 
O=C(NCCc1ccc(Cl)cc1)/C(=C/c1cccnc1)NC(=O)c1ccccc1 | inactive: 4.83% | 
Cn1c(=O)c2sccc2n2c(CCCC(=O)NCc3ccco3)nnc12 | inactive: -26.9% | 
CC(=O)Nc1cccc(C(=O)NC2CCCc3c2cnn3-c2ccc(C(C)(C)C)cc2)c1 (configuration not stated) | inactive: -16.8% | 
O=C1c2ccccc2C(=O)N1CCOc1ccccc1Br | inactive: -30.6% | 
CCOC(=O)C1CCN(C(=O)c2cccc(S(=O)(=O)N3CCCc4ccccc43)c2)CC1 | inactive: -19.9% | 
CCCn1c(SCC(=O)c2cc(C)n(-c3ccc4c(c3)OCO4)c2C)n[nH]c1=O | inactive: -21.4% | 
CCOc1cccc(CNc2ccc(O)cc2)c1OCc1ccc(Cl)cc1Cl | inactive: -28.8% | 
Cc1cc2cc(CNC(=O)C(C)Oc3ccccc3)ccc2n1C (configuration not stated) | inactive: -9.92% | 
N#CCCN(C(=S)NC(=O)C1CCCCC1)c1ccccc1F | inactive: -20.2% | 
CC(NC(=O)c1nn(C)c2c1CS(=O)(=O)c1ccccc1-2)c1ccccc1 (configuration not stated) | inactive: -22% | 
COc1cc(NC(=O)CCNC(=O)Cn2cnc3sc4c(c3c2=O)CCCC4)cc(OC)c1OC | inactive: -24.1% | 
O=C1CC(Cc2ccccc2)C(=O)N1c1ccc(Cl)cn1 (configuration not stated) | inactive: -9.76% | 
O=C(COC(=O)/C=C/c1cccs1)Nc1ccc(F)cc1 | inactive: -29.6% | 
CCc1ccc2c(c1)c(=O)c(C(=O)c1ccc(C)cc1)cn2CC(=O)Nc1ccccc1C | inactive: 65.3% | 
COc1ccc(-c2ccc(SCC(=O)NCc3ccc4c(c3)OCO4)nn2)cc1OC | inactive: -27.2% | 
Cc1cc(C)cc(C(=O)Nc2nnc(SCC(=O)NCC3CCCO3)s2)c1 (configuration not stated) | inactive: -19.3% | 
CCN1C(=O)C(CC(=O)NCCc2ccccc2)N(NC(=O)c2cccnc2)C1=S (configuration not stated) | inactive: -6.95% | 
CCOC(=O)N1CCC(NC(=O)Cc2ccccc2)CC1 | inactive: -2.97% | 
CC(C)Oc1cccc(C(=O)C2CCCN(Cc3ccc4nonc4c3)C2)c1 (configuration not stated) | inactive: -26.3% | 

SMILES | activity change, negative = inhibition | Potency
C=CCn1c(CNC(=O)c2ccccc2F)nnc1SCc1nc2ccccc2c(=O)[nH]1 | inactive: 1.75% | 
OCCC1CN(CCCc2ccccc2)CCN1CCc1ccccc1 (configuration not stated) | inactive: -19.8% | 
CCCCc1nc2sc3c(=O)[nH]c(=S)[nH]c3c2c2c1CCC2 | inactive: -4.24% | 
CCN(CC)Cc1c(O)c(Cl)cc2c(C)cc(=O)oc12 | inactive: -19.7% | 
FC(F)(F)COc1cc(-c2nnc(SCc3ccccc3)n2Cc2ccco2)cc(OCC(F)(F)F)n1 | inactive: -22.1% | 
CS(=O)(=O)NN1C(=O)c2ccccc2NC1c1cccc(O)c1 (configuration not stated) | inactive: -27.5% | 
O=C(COC(=O)c1ccc(F)cc1F)c1ccc[nH]1 | inactive: -3.98% | 
Oc1ccc(NCc2ccccc2OCc2ccccc2F)cc1 | inactive: -22.7% | 
Oc1ccc(N=Cc2sc3ccccc3c2Cl)cc1 | inactive: -29.8% | 
c1ccc(Oc2ncnc3ccccc23)cc1 | inactive: -23.6% | 
NS(=O)(=O)c1cccc(NC(=O)COC(=O)CSCc2ccccc2)c1 | inactive: -20.5% | 
COc1cccc(C(=O)c2c(C)c(CCC#N)n3ccccc23)c1OC | inactive: -17.2% | 
O=C(O)CC(CC(=O)N1CCOCC1)c1ccccc1 (configuration not stated) | inactive: 8.86% | 
COc1cccc(CCN2C(=O)C(=O)N([C@@H](CNCc3ccccc3)Cc3ccccc3F)C[C@@H]2C(C)(C)C)c1 | inactive: -9.66% | 
O=C(NCCCN1CCOCC1)c1ccc(CSc2ccc(Cl)cc2)cc1 | inactive: -4.99% | 
COc1ccc(C(=O)NCc2csc(C)n2)cc1OC1CCN(C(C)=O)CC1 | inactive: -15.2% | 
Cc1ccc(NS(=O)(=O)c2ccc(NC(=O)c3ccccc3C(=O)O)cc2)cc1C | inactive: -25.4% | 
Cc1ccc2sc(NNC(=O)c3ccc4c(c3)OCCO4)nc2c1C | inactive: -17.2% | 
CN(CCO)C1=NS(=O)(=O)c2cc([N+](=O)[O-])ccc21 |  | active: 28.2 µM
Cc1ccc(S(=O)(=O)N2CCOCC2)cc1NC(=O)CSc1nccn1C | inactive: -1.91% | 
COc1ccccc1CN(C)C(=O)C(NC(=O)Cc1cccc2ccccc12)C(C)C (configuration not stated) | inactive: -1.11% | 
CCOc1ccccc1C1CC(c2ccc(Br)cc2)Nc2nc(N)nn21 (configuration not stated) | inactive: -9.23% | 

SMILES | activity change, negative = inhibition | Potency
CCCC(=O)Nn1cnc2c(c1=O)C1(CCCCC1)Cc1ccccc1-2 | inactive: -1.01% | 
O=C(c1ccccc1)N1C(=O)C(c2ccccc2)Oc2ccccc21 (configuration not stated) | inactive: -6.05% | 
CCCCCC(=O)NC(=S)Nc1cccc(-c2nc3ncccc3o2)c1 | inactive: -21.6% | 
CC1(C)C2CCC1(CS(=O)(=O)Nc1ccccc1)C(=O)C2 (configuration not stated) | inactive: -1.49% | 
CC(=O)Nc1nnc(-c2c(-c3c(Cl)cccc3Cl)noc2C)o1 | inactive: -7.69% | 
CCCCc1nn2c(=O)cc(COC(=O)c3ccccc3NC(=O)C(C)(C)C)nc2s1 | inactive: 6.1% | 
Oc1ccc(NCc2cccc(OCc3ccccc3)c2)cc1 | inactive: -3.5% | 
Cc1ccc2c(c1)N(CCC(=O)NC1CCCCC1)C(=O)CO2 | inactive: -26.9% | 
c1ccc(-c2cc3ccccc3[nH]2)cc1 | inactive: -15.6% | 
Cc1cccc(NC(=O)c2cc3ccccc3nc2C)c1 | inactive: -27.3% | 
CCCCn1c(N)c(N(CCOC)C(=O)c2ccc(S(=O)(=O)N3CCCCC3)cc2)c(=O)[nH]c1=O | inactive: 11.4% | 
COc1ccc(-n2c(SCC(C)=O)nc3sc(C)c(C)c3c2=O)cc1 | inactive: 1.8% | 
CCCCn1c(=O)[nH]c2nc3cc(N)ccc3nc2c1=O |  | active: 50.1 µM
O=C(CCNC(=O)c1ccccc1Cl)NCCCSc1ccccc1 | inactive: 3.98% | 
Cc1cccc(/C=N/NC(=O)NC23CC4CC(CC(C4)C2)C3)n1 | inactive: -19.3% | 
CCN1CCCC(OC(=O)Nc2ccccc2)C1 (configuration not stated) | inactive: -15.8% | 
Cc1cc(C)c(S(=O)(=O)N2CCN(C(=O)N3CCOCC3)CC2)c(C)c1 | inactive: 1.33% | 
Cc1ccc([C@@H]2C3COCC=C3C(C#N)=C(N)C2(C#N)C#N)o1 (some centres not stated) | inactive: -20.7% | 
CC1(C)CC(=O)C2=C(C1)OC(=O)CC2c1cccs1 (configuration not stated) | inactive: -7.69% | 
CCOc1ccc(S(=O)(=O)N2CCC(C(=O)NCC3CCCO3)CC2)cc1C (configuration not stated) | inactive: -18.4% | 
Cc1ccc(NC(=O)CN2C(=O)C3CC=C(Cl)CC3C2=O)cc1 (configuration not stated) | inactive: 4.35% | 
Cc1cccc(CC(=O)NCCn2c(C)cc3ccccc32)c1 | inactive: -24% | 

SMILES | activity change, negative = inhibition | Potency
COc1ccc(COC(=O)C2=C(C)NC(=O)NC2c2ccccc2)cc1 (configuration not stated) | inactive: -26.4% | 
Cc1c(OC(C(=O)O)c2ccccc2)ccc2c(-c3ccccc3)cc(=O)oc12 (configuration not stated) | inactive: -47.6% | 
Cc1cccc(NC(=O)NCCCCc2ccccc2)c1 | inactive: -6.68% | 
COc1ccc(/C=N/n2c(-c3n[nH]c4c3CCC4)n[nH]c2=S)cc1 | inactive: -20.7% | 
CN1C(=O)NC(NC(=O)c2ccncc2)(C(F)(F)F)C1=O (configuration not stated) | inactive: -2.39% | 
CC(OC(=O)C1CCN(S(=O)(=O)c2ccccc2C(F)(F)F)CC1)C(=O)N(C)Cc1ccccc1 (configuration not stated) | inactive: -18.5% | 
COc1cccc(NC(=O)C2CCN(c3nn4cc(-c5ccc(F)cc5)nc4s3)CC2)c1 | inactive: 13.2% | 
Cc1cc(C(C)(C)CC(C)(C)C)ccc1OCCOCC[N+](C)(C)Cc1ccccc1 | inactive: -7% | 
CCc1cc(C(=O)OC)c(NC(=O)CN2CCN(C(=O)C3CCCO3)CC2)s1 (configuration not stated) | inactive: 7.69% | 
Cc1cccc(-n2c(CNC(=O)c3ccc(S(=O)(=O)N4CCCC4)cc3)n[nH]c2=S)c1 | inactive: -7.59% | 
Cc1cc(/C=C(\C#N)C(=O)Nc2ccccc2)c(C)n1-c1ccc(C(=O)O)cc1 | inactive: -62.2% | 
COc1cc(CNc2ccc(O)cc2)cc(Br)c1OCc1ccccc1 | inactive: -2.76% | 
O=C(CCn1cccc1)NCc1ccccc1 | inactive: 2.02% | 
O=C(NCCSc1c[nH]c2ccccc12)c1ccc(Cl)cc1 | inactive: 0.955% | 
CCn1cc(C(=O)N2CCCC(N3CCN(c4cccc(C(F)(F)F)c4)CC3)C2)cn1 (configuration not stated) | inactive: -25.5% | 
Nc1ccc(S(=O)(=O)Nc2ncccn2)cc1 | inactive: -20.5% | 
Cc1ccccc1C(=O)Oc1c(Sc2ccccc2)c(C)nn1C(C)(C)C | inactive: -18.4% | 
O=C(CSc1nc2ccccc2o1)N/N=C/c1ccc(C(=O)O)cc1 | inactive: -31.1% | 
CN(C)c1ccc(/C=C(\C#N)c2nc(-c3ccc(Cl)c(Cl)c3)cs2)cc1 | inactive: -19.4% | 
